Results: patent US8313752B2, “Macrocyclic lactone combination compositions, vaccines and methods for producing same” (Merial Limited, priority 2009, dated 2012)
Some entries share one result that the patent states for a list of compounds.

Assay: ML residues in milk of lactating dairy cows after single IM dose of ML/vaccine combination (LC-MS/MS)
Type: in vivo, Dairy cows (Friesian and Friesian cross)
Conditions: estimated from residue data relative to the MRLs that apply in Europe
Method: Study Objectives: 1) To measure ML residues in milk and tissues of lactating dairy cows after a single dose of an experimental formulation of eprinomectin, ivermectin, moxidectin or doramectin combined with an inactivated rotavirus, coronavirus and Escherichia coli vaccine was administered by intramuscular injection at 0.3 and 0.4 mg macrocyclic lactone/kg bodyweight. 2) To evaluate local tissue irritancy of the experimental formulations when administered to cattle by intramuscular injection.
Experimental formulations of each of four macrocyclic lactones were separately combined with equal parts of a registered vaccine, Rotavec® Corona (Schering-Plough). […]
Methods: On day −5, fifty-four animals were identified for screening and were checked for mastitis by palpation of the mammary gland, visualization of the mammary secretions and Rapid Mastitis Test (RMT, Immucell, Portland, Me.). […] Of the thirty-three animals, the cow with the highest average daily milk yield, as assessed over a seven-day period, was allocated as the control. […]
On Day 0, the cows were weighed and blood samples were collected from all animals in Groups 1 and 2 for use in a subsequent plasma eprinomectin assay. […] Doses were calculated based upon the animal's Day 0 bodyweight to provide approximately 40 mg ML/mL. Calculated doses were rounded up to the nearest 0.2 mL. […]

## CO[C@H]1C[C@H](O[C@H]2[C@H](C)O[C@@H](O[C@@H]3/C(C)=C/C[C@@H]4C[C@@H](C[C@]5(C=C[C@H](C)[C@@H](C6CCCCC6)O5)O4)OC(=O)[C@@H]4C=C(C)[C@@H](O)[C@H]5OC/C(=C\C=C\[C@@H]3C)[C@]54O)C[C@@H]2OC)O[C@@H](C)[C@@H]1O [Doramectin]
  Withholding period (milk): more than 21 days
